Reference: US20220056097A1
These are yes or no findings as the source states them, for the method shown. Some binding calls cover weakened binding; strength is not graded here.

Amino acid sequences for entries named in this document (tags omitted). A change or cut given only in a name is not applied to a line headed by its entry. Residues count along the entry.
UniProt Q8VZS8: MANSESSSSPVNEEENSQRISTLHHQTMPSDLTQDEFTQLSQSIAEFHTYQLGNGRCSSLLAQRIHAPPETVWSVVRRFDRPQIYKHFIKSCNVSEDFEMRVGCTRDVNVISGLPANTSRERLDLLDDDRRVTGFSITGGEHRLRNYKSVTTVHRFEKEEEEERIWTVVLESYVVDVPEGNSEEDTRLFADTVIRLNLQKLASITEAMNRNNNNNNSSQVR
UniProt Q13263, residues 2-835: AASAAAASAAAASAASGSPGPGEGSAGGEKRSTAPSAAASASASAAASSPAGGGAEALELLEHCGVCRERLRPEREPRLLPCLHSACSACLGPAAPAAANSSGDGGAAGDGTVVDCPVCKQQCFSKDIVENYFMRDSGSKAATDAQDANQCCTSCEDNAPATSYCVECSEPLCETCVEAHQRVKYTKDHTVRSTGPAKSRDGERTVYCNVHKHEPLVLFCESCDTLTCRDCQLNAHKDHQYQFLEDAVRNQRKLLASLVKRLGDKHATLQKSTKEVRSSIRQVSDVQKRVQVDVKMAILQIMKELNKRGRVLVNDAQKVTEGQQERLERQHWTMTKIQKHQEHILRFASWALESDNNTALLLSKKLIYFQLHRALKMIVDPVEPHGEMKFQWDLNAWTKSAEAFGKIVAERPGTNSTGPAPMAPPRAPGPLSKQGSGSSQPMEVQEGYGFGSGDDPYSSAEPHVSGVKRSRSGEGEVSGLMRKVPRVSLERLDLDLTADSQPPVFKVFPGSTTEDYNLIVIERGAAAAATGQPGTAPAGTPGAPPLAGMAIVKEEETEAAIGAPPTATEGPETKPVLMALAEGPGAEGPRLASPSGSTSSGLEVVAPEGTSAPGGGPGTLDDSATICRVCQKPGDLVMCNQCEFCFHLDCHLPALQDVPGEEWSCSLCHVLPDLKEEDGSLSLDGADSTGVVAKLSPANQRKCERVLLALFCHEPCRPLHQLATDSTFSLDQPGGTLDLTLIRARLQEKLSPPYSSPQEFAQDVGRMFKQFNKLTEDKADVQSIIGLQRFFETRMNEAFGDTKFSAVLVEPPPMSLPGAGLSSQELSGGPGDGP
UniProt P45973: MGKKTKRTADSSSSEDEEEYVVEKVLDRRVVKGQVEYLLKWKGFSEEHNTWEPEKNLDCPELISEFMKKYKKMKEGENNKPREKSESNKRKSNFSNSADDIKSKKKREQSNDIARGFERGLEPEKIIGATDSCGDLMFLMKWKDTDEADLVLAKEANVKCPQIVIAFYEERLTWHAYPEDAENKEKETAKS

What was measured:
PYL1-sfGFP-KRAB [1] = biological target: PYL1-sfGFP-KRAB (UniProt Q8VZS8); experiment: immunostaining of KAP1 and linear fluorescence tracing at ABA-induced PYL1-sfGFP-KRAB foci in U2OS cells, 2 days 100 µM ABA
PYL1-sfGFP-KRAB [2] = biological target: PYL1-sfGFP-KRAB (UniProt Q8VZS8); experiment: immunostaining at ABA-induced KRAB foci in U2OS cells
PYL1-sfGFP-KRAB [3] = biological target: PYL1-sfGFP-KRAB (UniProt Q8VZS8); experiment: immunostaining of KAP1 and linear fluorescence tracing (FIG. 78)
PYL1-sfGFP-KRAB [4] = biological target: PYL1-sfGFP-KRAB (UniProt Q8VZS8); experiment: confocal co-localization at ABA-induced KRAB foci in U2OS cells
PYL1-sfGFP-KRAB [5] = biological target: PYL1-sfGFP-KRAB (UniProt Q8VZS8); experiment: confocal co-localization and linear fluorescence tracing at ABA-induced PYL1-sfGFP-KRAB foci in U2OS cells, 2 days ABA; filing describes recruitment as indirect via KAP1
PYL1-sfGFP-KRAB [6] = biological target: PYL1-sfGFP-KRAB (UniProt Q8VZS8); experiment: confocal co-localization and linear fluorescence tracing (FIG. 77)

binding (PYL1-sfGFP-KRAB [1])	binding (PYL1-sfGFP-KRAB [2])	binding (PYL1-sfGFP-KRAB [3])	binding (PYL1-sfGFP-KRAB [4])	binding (PYL1-sfGFP-KRAB [5])	binding (PYL1-sfGFP-KRAB [6])	Substance
binds	binds	binds	–	–	–	KAP1 (from UniProt Q13263 2-835)
–	–	–	binds	binds	binds	mCherry-HP1α (from UniProt P45973 1-191)
